Laboratory results as given in article doi:10.1101/2020.08.12.247767.
Results are given in words; binding and its absence hold for the method and conditions named. In cells and extracts the contact can be indirect. Some results given as binding are weak or reduced against the parent protein; the word gives no strength. Where a sequence is shown, tags or fusion partners need not be part of it.

Biological target: GFP-NSP8 (SARS-CoV-2 nonstructural protein 8) (SARS-CoV-2) (UniProt P0DTD1)
Assay: co-IP

B1: full-length Flag-MDA5 (melanoma differentiation-associated gene-5) (protein, UniProt Q9BYX4 1-1025)
chain: MSNGYSTDENFRYLISCFRARVKMYIQVEPVLDYLTFLPAEVKEQIQRTVATSGNMQAVELLLSTLEKGVWHLGWTREFVEALRRTGSPLAARYMNPELTDLPSPSFENAHDEYLQLLNLLQPTLVDKLLVRDVLDKCMEEELLTIEDRNRIAAAENNGNESGVRELLKRIVQKENWFSAFLNVLRQTGNNELVQELTGSDCSESNAEIENLSQVDGPQVEEQLLSTTVQPNLEKEVWGMENNSSESSFADSSVVSESDTSLAEGSVSCLDESLGHNSNMGSDSGTMGSDSDEENVAARASPEPELQLRPYQMEVAQPALEGKNIIICLPTGSGKTRVAVYIAKDHLDKKKKASEPGKVIVLVNKVLLVEQLFRKEFQPFLKKWYRVIGLSGDTQLKISFPEVVKSCDIIISTAQILENSLLNLENGEDAGVQLSDFSLIIIDECHHTNKEAVYNNIMRHYLMQKLKNNRLKKENKPVIPLPQILGLTASPGVGGATKQAKAEEHILKLCANLDAFTIKTVKENLDQLKNQIQEPCKKFAIADATREDPFKEKLLEIMTRIQTYCQMSPMSDFGTQPYEQWAIQMEKKAAKEGNRKERVCAEHLRKYNEALQINDTIRMIDAYTHLETFYNEEKDKKFAVIEDDSDEGGDDEYCDGDEDEDDLKKPLKLDETDRFLMTLFFENNKMLKRLAENPEYENEKLTKLRNTIMEQYTRTEESARGIIFTKTRQSAYALSQWITENEKFAEVGVKAHHLIGAGHSSEFKPMTQNEQKEVISKFRTGKINLLIATTVAEEGLDIKECNIVIRYGLVTNEIAMVQARGRARADESTYVLVAHSGSGVIEHETVNDFREKMMYKAIHCVQNMKPEEYAHKILELQMQSIMEKKMKTKRNIAKHYKNNPSLITFLCKNCSVLACSGEDIHVIEKMHHVNMTPEFKELYIVRENKALQKKCADYQINGEIICKCGQAWGTMMVHKGLDLPCLKIRNFVVVFKNNSTKKQYKKWVELPITFPNLDYSECCLFSDED
- binding: binds
